Results taken from PMC6006850, “Assessment of new HDAC inhibitors for immunotherapy of malignant pleural mesothelioma” (Clinical Epigenetics, 2018).

System: CD8 T-cell clones
Assay: Cell viability (CellTiter-Glo) of CD8 T-cell clones treated with HDACi, with or without decitabine
Assay type: cell-based
Settings: Homo sapiens, 48 h HDACi, no decitabine pretreatment

Compound: O=C(CCCCCCC(=O)Nc1ccccc1)NO [SAHA, Suberoylanilide hydroxamic acid]
- IC50: 1.29 ± 0.05 µM
